From publication doi:10.1101/2020.03.02.972281 (bioRxiv, 2020)
Results are given in words; binding and its absence hold for the method and conditions named. Some binding calls cover weakened binding; strength is not graded here.

The chains behind the UniProt entries cited, without tags or fusion partners. Residues count along the entry.
UniProt P02787, residues 20-698: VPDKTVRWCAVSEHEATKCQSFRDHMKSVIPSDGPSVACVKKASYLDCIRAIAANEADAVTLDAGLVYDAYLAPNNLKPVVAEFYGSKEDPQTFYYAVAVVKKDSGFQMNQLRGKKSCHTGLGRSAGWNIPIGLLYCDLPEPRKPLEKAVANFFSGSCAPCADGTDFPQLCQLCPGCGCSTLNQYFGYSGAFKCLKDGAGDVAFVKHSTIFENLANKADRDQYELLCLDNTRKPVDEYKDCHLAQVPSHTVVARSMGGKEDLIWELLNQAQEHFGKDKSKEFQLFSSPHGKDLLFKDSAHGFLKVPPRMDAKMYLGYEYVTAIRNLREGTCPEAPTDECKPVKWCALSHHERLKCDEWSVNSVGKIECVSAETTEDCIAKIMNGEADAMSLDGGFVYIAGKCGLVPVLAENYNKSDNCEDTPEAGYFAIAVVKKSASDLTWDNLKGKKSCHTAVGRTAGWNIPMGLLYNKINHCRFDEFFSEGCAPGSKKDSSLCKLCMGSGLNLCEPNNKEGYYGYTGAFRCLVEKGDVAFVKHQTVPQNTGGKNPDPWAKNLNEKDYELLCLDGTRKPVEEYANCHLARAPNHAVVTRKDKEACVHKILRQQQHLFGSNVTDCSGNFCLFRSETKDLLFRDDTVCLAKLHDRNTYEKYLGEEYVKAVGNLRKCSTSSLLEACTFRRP

Target: transferrin (human, UniProt P02787 20-698)
Assay: SPR

| binding | Binder |
| --- | --- |
| binds weakly | CD14 mutant (D44A, S46A and Q50A) (protein, UniProt P08571 20-345) TTPEPCELDDEDFRCVCNFSEPQPAWAEAFACVSAVEVEIHAGGLNLEPFLKRVDADADPRQYADTVKALRVRRLTVGAAQVPAQLLVGALRVLAYSRLKELTLEDLKITGTMPPLPLEATGLALSSLRLRNVSWATGRSWLAELQQWLKPGLKVLSIAQAHSPAFSCEQVRAFPALTSLDLSDNPGLGERGLMAALCPHKFPAIQNLALRNTGMETPTGVCAALAAAGVQPHSLDLSHNSLRATVNPSAPRCMWSSALNSLNLSFAGLEQVPKGLPAKLRVLDLSCNRLNRAPQPDELPEVDNLTLDGNPFLVPGTALPHEGSMN |
| binds | human CD14 (natural protein, UniProt P08571 20-345, looked up) TTPEPCELDDEDFRCVCNFSEPQPDWSEAFQCVSAVEVEIHAGGLNLEPFLKRVDADADPRQYADTVKALRVRRLTVGAAQVPAQLLVGALRVLAYSRLKELTLEDLKITGTMPPLPLEATGLALSSLRLRNVSWATGRSWLAELQQWLKPGLKVLSIAQAHSPAFSCEQVRAFPALTSLDLSDNPGLGERGLMAALCPHKFPAIQNLALRNTGMETPTGVCAALAAAGVQPHSLDLSHNSLRATVNPSAPRCMWSSALNSLNLSFAGLEQVPKGLPAKLRVLDLSCNRLNRAPQPDELPEVDNLTLDGNPFLVPGTALPHEGSMN |
